No constants are given. Whether binding was seen depends on the method and setting. Binding seen in cells or lysates may run through a third protein. Here binding means that the protein was enriched with, or labelled near, the bait; the list need not be complete. Where a sequence is shown, tags or fusion partners need not be part of it.

For this test, the target named is T1, cell division cycle 6 (CDC6) tagged with HA (human) (UniProt Q99741).
T1 sequence: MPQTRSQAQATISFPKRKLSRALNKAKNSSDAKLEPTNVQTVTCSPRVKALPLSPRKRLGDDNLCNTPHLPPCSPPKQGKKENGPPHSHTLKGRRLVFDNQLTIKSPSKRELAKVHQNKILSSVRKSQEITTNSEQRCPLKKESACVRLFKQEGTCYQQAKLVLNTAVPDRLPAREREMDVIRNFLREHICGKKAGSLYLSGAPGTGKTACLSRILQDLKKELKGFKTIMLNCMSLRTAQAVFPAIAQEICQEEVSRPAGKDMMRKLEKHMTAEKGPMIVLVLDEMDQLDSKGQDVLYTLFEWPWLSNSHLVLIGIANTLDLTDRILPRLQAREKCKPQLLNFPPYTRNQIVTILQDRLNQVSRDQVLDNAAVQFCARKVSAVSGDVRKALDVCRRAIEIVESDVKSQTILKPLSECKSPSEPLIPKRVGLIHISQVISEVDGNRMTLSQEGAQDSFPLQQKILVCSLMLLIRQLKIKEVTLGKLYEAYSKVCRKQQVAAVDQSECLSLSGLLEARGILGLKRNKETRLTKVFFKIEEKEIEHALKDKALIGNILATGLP
Kind of test: affinity purification with mass spectrometry; HEK293T transfected with CDC6-HA for 48 h, lysed in western-IP lysis buffer; anti-HA magnetic beads overnight; SDS-PAGE, silver stain, differential band (about 40-55 kDa) cut out and analysed by LC-MS/MS.

B1: tropomodulin-3 (Tmod3), endogenous in HEK293T (protein, UniProt Q9NYL9 1-352)
chain: MALPFRKDLEKYKDLDEDELLGNLSETELKQLETVLDDLDPENALLPAGFRQKNQTSKSTTGPFDREHLLSYLEKEALEHKDREDYVPYTGEKKGKIFIPKQKPVQTFTEEKVSLDPELEEALTSASDTELCDLAAILGMHNLITNTKFCNIMGSSNGVDQEHFSNVVKGEKILPVFDEPPNPTNVEESLKRTKENDAHLVEVNLNNIKNIPIPTLKDFAKALETNTHVKCFSLAATRSNDPVATAFAEMLKVNKTLKSLNVESNFITGVGILALIDALRDNETLAELKIDNQRQQLGTAVELEMAKMLEENTNILKFGYQFTQQGPRTRAANAITKNNDLVRKRRVEGDHQ
For the molecule B1, the binding result is reported as “binds”.

(Values after PMC12675664.)
